Results are given in words; binding and its absence hold for the method and conditions named. Binding seen in cells or lysates may run through a third protein. Some binding calls cover weakened binding; strength is not graded here.
Experiments:
Assay in all cases: cross-linking; oxidative cross-linking with copper phenanthroline (CuP) of HEK 293T cells stably expressing the transporter, 22 °C, 15 min, HEPES buffered saline pH 7.4, stopped with 10 mM N-ethylmaleimide; lysate in non-reducing sample buffer, anti-FLAG immunoblot; 100 mM DTT on lysates to reverse
[1] = target: human dopamine transporter (hDAT) D301A (human) (UniProt Q01959)
[2] = target: human dopamine transporter (hDAT) D301N (human) (UniProt Q01959)
[3] = target: human dopamine transporter (hDAT) E307A (human) (UniProt Q01959)
[4] = target: human dopamine transporter (hDAT) R304A (human) (UniProt Q01959)
[5] = target: human dopamine transporter (hDAT) WT (human) (UniProt Q01959)

Substance: human dopamine transporter (hDAT) D301A (from UniProt Q01959 1-620)
- binding [1]: binds

Substance: human dopamine transporter (hDAT) D301N (from UniProt Q01959 1-620)
- binding [2]: binds

Substance: human dopamine transporter (hDAT) E307A (from UniProt Q01959 1-620)
- binding [3]: binds

Substance: human dopamine transporter (hDAT) R304A (from UniProt Q01959 1-620)
- binding [4]: binds

Substance: human dopamine transporter (hDAT) WT (from UniProt Q01959 1-620)
- binding [5]: binds

Source: PMC11011927
